The record followed here is paper PMC3837162.

Chains of the proteins cited; added tags and fusions are not shown.
UniProt P84095: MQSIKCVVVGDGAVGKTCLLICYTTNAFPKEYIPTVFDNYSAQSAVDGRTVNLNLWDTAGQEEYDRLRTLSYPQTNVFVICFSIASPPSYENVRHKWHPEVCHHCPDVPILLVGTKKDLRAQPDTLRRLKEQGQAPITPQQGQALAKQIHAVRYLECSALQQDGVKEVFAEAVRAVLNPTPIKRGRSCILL
UniProt P63027: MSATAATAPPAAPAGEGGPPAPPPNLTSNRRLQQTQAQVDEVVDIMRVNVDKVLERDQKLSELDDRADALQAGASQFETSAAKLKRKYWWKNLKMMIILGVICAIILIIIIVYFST
UniProt P84096: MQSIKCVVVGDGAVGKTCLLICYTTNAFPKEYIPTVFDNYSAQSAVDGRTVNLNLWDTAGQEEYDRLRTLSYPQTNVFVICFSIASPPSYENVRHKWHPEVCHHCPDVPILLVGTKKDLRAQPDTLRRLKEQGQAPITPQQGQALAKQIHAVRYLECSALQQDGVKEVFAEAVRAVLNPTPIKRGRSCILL

Test [1] addresses T1, GST-ELMO fusion protein (ELMO2, amino acids 1-362) (UniProt Q96JJ3).
T1 sequence: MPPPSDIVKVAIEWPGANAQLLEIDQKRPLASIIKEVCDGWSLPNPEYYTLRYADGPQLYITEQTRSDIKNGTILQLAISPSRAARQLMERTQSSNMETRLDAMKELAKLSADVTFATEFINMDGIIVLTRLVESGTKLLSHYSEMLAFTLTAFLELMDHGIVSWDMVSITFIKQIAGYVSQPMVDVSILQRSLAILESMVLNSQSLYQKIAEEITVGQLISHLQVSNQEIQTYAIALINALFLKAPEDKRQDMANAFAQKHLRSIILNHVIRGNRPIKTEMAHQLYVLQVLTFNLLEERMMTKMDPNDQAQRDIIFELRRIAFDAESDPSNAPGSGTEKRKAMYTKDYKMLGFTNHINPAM
The test can be described thus: pull-down; GST-ELMO (ELMO2 1-362) on GSH-Sepharose rotated for 1 h at 4 °C with lysates of washed human or mouse platelets stimulated with CRP or thrombin (some human samples pre-treated with pharmacologic inhibitors); lysis buffer with Tris-Cl, NaCl, MgCl2, Triton X-100; RhoG identified by immunoblotting; only the target purified.

The target in test [2] is GST-RhoG fusion protein (UniProt P84095). The test can be described thus: pull-down; GDP-loaded (1 mM) GST-RhoG-Sepharose beads rotated with human platelet whole cell lysates for 1 h at 4 °C; bound proteins detected by immunoblotting; GSH-Sepharose beads as control; only the target purified.
Test [3] has the same target. In words: pull-down; GTPγS-loaded (100 uM) GST-RhoG-Sepharose beads rotated with human platelet whole cell lysates for 1 h at 4 °C; bound proteins detected by immunoblotting; GSH-Sepharose beads as control; only the target purified.

These are yes or no findings as the source states them, for the method shown. Binding seen in cells or lysates may run through a third protein. Some binding calls cover weakened binding; strength is not graded here. For part of these data: Tags and fused reporters may be left off the sequences shown.

Regarding “RhoG (human platelets, activated, GTP-bound form) (from UniProt P84095 1-191)”, the binding entry in test [1] is “binds”. For “DOCK1 (DOCK180) (from UniProt Q14185 1-1865)”, the binding result with GST-RhoG fusion protein [2] was “no binding (condition: GDP-loaded RhoG)”; with GST-RhoG fusion protein [3] it was “binds”. For “Vesicle-associated membrane protein 2 (from UniProt P63027 1-116)”, the binding entry in the test with GST-RhoG fusion protein [2] and with GST-RhoG fusion protein [3] was “binds” throughout.

As for “RhoG (mouse platelets, activated form) (from UniProt P84096 1-191)”, in test [1], the binding entry is on record as “binds”.
